Measurements: PubChem BioAssay AID330 (DTP/NCI, 2004)
The list does not hold the whole screen: it gathers tests that were run many times, whatever their T/C, doses with no T/C, and many T/C values between a quarter and a half above the control. Further doses and runs are listed elsewhere. T/C is the treated group as % of the vehicle group. Some entries give survivors of the animals treated and no T/C: the source files T/C as zero there, which appears to mark a toxic dose or a test without result, not a measured value. Some doses without a T/C left all or most animals alive at the check, yet need not have been tolerated: the source hardly ever lists a survival T/C far under the control, and the zero likely stands for such cases as well. Counts of survivors are from the toxicity check (mostly the fifth day) where no day follows; animals may have died later. Schedule codes are those of the source, taken here to give the interval after Q, in days (D) or hours (H), and the number of doses after X. Some doses were run more than once; the results are listed from low to high. For survival time, this PubChem deposit counts one and a half times the control or more as active, and values a quarter to a half above the control carry no call in these data; other NCI protocols may use other cut-offs. Some T/C values carry the count of animals alive at the toxicity check (mostly the fifth day); where none is given, no animal had died by that day.

Tested on: P388 leukemia ip, CD2F1 mice, survival T/C
Assay: NCI In Vivo Anticancer Drug Screen. Data for tumor model P388 Leukemia (intraperitoneal) in CD2F1 (CDF1) mice
Conditions: T/C endpoint: median survival time, higher T/C = longer survival
[1] = dose: 200.0 mg/kg/injection, schedule: Q01DX009 (ip), vehicle: saline with Tween-80
[2] = dose: 100.0 mg/kg/injection, schedule: Q01DX009 (ip), vehicle: saline with Tween-80

In the case of `O=c1c(F)cn(C(c2ccccc2)c2ccccc2)c(=O)n1C(c1ccccc1)c1ccccc1`, the survivor count (dose: 100.0 mg/kg/injection, schedule: Q01DX009 (ip), vehicle: suspension in saline) was 6 of 6.
With `O=C(O)c1c2c(nc3ccccc13)CCCC2` the survivor count (dose: 200.0 mg/kg/injection, schedule: Q01DX005 (ip), vehicle: Klucel + Tween-80) was 4 of 6.
In the case of `CN(C)c1ccc([N+](C)(C)Cc2ccc(C[N+](C)(C)c3ccc([N+](C)(C)Cc4ccc(CCl)cc4)cc3)cc2)cc1`, the survivor count (dose: 12.5 mg/kg/injection, schedule: Q01DX001 (ip), vehicle: saline) was 0 of 6 and 3 of 6, the survivor count (dose: 25.0 mg/kg/injection, schedule: Q01DX001 (ip), vehicle: saline) was 0 of 6 and the survivor count (dose: 50.0 mg/kg/injection, schedule: Q01DX001 (ip), vehicle: saline) was 1 of 6. For the same molecule, the survivor count (dose: 100.0 mg/kg/injection, schedule: Q01DX001 (ip), vehicle: saline) was 0 of 6, the survivor count (dose: 200.0 mg/kg/injection, schedule: Q01DX001 (ip), vehicle: saline) was 0 of 6 and the survivor count (dose: 400.0 mg/kg/injection, schedule: Q01DX001 (ip), vehicle: saline) was 0 of 6.
For `CCN(CC)c1ccc2nc3ccc(N=Nc4ccc(O)cc4)cc3[n+](-c3ccccc3)c2c1`, the survivor count (dose: 200.0 mg/kg/injection, schedule: Q01DX005 (ip), vehicle: saline with Tween-80) was 0 of 5.
In the case of `CN(C#N)CCc1ccccc1`, the survivor count [1] was 3 of 6.
With `CC(C)NCC(O)COc1ccc(OCc2ccccc2)c(OCc2ccccc2)c1` (stereo not drawn) the survivor count [2] was 1 of 6 and the survivor count [1] was 0 of 6.
In the case of `CNC(=O)Oc1ccc[nH]c1=O`, the T/C (dose: 64.0 mg/kg/injection, schedule: Q01DX009 (ip), vehicle: saline with Tween-80) was 131 % of control, the T/C (dose: 100.0 mg/kg/injection, schedule: Q01DX009 (ip), vehicle: saline) was 125 and 127 % of control and the T/C (dose: 128.0 mg/kg/injection, schedule: Q01DX009 (ip), vehicle: saline with Tween-80) was 140 % of control. For the same molecule, the T/C (dose: 200.0 mg/kg/injection, schedule: Q01DX009 (ip), vehicle: saline) was 128 and 134 % of control, the T/C (dose: 256.0 mg/kg/injection, schedule: Q01DX009 (ip), vehicle: saline with Tween-80) was 131 and 142 % of control and the T/C (dose: 400.0 mg/kg/injection, schedule: Q01DX009 (ip), vehicle: saline) was 136 % of control [4 of 6 alive]. For the same molecule, the T/C (dose: 400.0 mg/kg/injection, schedule: Q01DX009 (sc), vehicle: saline) was 145 % of control [5 of 6 alive], the survivor count (dose: 512.0 mg/kg/injection, schedule: Q01DX009 (ip), vehicle: saline with Tween-80) was 0 of 6 and 1 of 6 and the survivor count (dose: 600.0 mg/kg/injection, schedule: Q01DX009 (ip), vehicle: saline) was 0 of 6.
`Nc1ccc(-c2nc3ccccc3[nH]2)cc1` was tested, and the survivor count (dose: 400.0 mg/kg/injection, schedule: Q04DX003 (ip), vehicle: saline) was 0 of 6.
In the case of `CC1OC(CC(=O)O)Cc2c1c(O)c1c(O)cc(-c3cc(=O)c4c(=O)c5c(c(=O)c=4c3=O)CC(CC(=O)O)OC5C)c(O)c1c2O` (stereo not drawn), the survivor count (dose: 50.0 mg/kg/injection, schedule: Q01DX009 (ip), vehicle: saline with Tween-80) was 6 of 6, the survivor count [2] was 1 of 6 and the survivor count [1] was 0 of 6.
`CCc1c(O)c(C(C)=O)c(S)[nH]c1=O` was tested, and the survivor count (dose: 120.0 mg/kg/injection, schedule: Q01DX005 (ip), vehicle: Klucel (hydroxypropylcellulose) (HPC)) was 6 of 6.
In the case of `O=C1CSC(c2ccc(O)c(O)c2)N1c1nncs1` (stereo not drawn), the survivor count (dose: 100.0 mg/kg/injection, schedule: Q04DX002 (ip), vehicle: saline with Tween-80) was 6 of 6, the survivor count (dose: 200.0 mg/kg/injection, schedule: Q04DX002 (ip), vehicle: saline with Tween-80) was 6 of 6 and the survivor count (dose: 400.0 mg/kg/injection, schedule: Q04DX002 (ip), vehicle: saline with Tween-80) was 6 of 6.
`COc1cccc2c1C(=O)c1c(O)c3c(c(O)c1C2=O)C[C@@](O)(C(C)=O)C[C@@H]3OC1CC(NC(=O)C(N)CC(C)C)C(O)C(C)O1` (stereo partly drawn) was tested, and the T/C (dose: 3.12 mg/kg/injection, schedule: Q04DX003 (ip), vehicle: saline) was 137 % of control, the T/C (dose: 6.25 mg/kg/injection, schedule: Q04DX003 (ip), vehicle: saline) was 130 % of control and the T/C (dose: 12.5 mg/kg/injection, schedule: Q04DX003 (ip), vehicle: saline) was 127 and 140 % of control. The T/C (dose: 50.0 mg/kg/injection, schedule: Q04DX003 (ip), vehicle: saline) was 144 % of control [5 of 6 alive on day 9].
In the case of `C[C@]12CC[C@@H]3c4ccc(O)c(N)c4CC[C@H]3[C@@H]1CC[C@@H]2O`, the survivor count (dose: 50.0 mg/kg/injection, schedule: Q01DX005 (ip), vehicle: saline with Tween-80) was 6 of 6.
For `COc1cccc2c1C(=O)c1c(O)c3c(c(O)c1C2=O)C[C@@](O)(C(=O)O)C[C@@H]3OC1CC(N)C(O)C(C)O1` (stereo partly drawn), the T/C (dose: 6.25 mg/kg/injection, schedule: Q01DX009 (ip), vehicle: water) was 139 % of control, the T/C (dose: 12.5 mg/kg/injection, schedule: Q01DX009 (ip), vehicle: water) was 127 and 139 % of control and the T/C (dose: 25.0 mg/kg/injection, schedule: Q01DX009 (ip), vehicle: water) was 132 and 137 % of control. For the same molecule, the T/C (dose: 50.0 mg/kg/injection, schedule: Q01DX009 (ip), vehicle: water) was 149 % of control, the T/C (dose: 75.0 mg/kg/injection, schedule: Q01DX009 (ip), vehicle: water) was 146 % of control and the T/C (dose: 100.0 mg/kg/injection, schedule: Q01DX009 (ip), vehicle: water) was 141 % of control. For the same molecule, the T/C (dose: 150.0 mg/kg/injection, schedule: Q01DX009 (ip), vehicle: water) was 149 % of control.
With `CCCCCCC(=O)/C=C/c1cccc(OCc2ccc([N+](=O)[O-])cc2)c1` the survivor count [2] was 6 of 6.
In the case of `NCC(=O)c1ccc2ccccc2c1`, the survivor count (dose: 240.0 mg/kg/injection, schedule: Q01DX005 (ip), vehicle: Klucel (hydroxypropylcellulose) (HPC)) was 0 of 6.
For `CN(C)CCNc1cccc2c1C(=O)c1cccc(NCCN(C)C)c1C2=O`, the survivor count (dose: 30.0 mg/kg/injection, schedule: Q01DX009 (ip), vehicle: saline) was 6 of 6 and the survivor count (dose: 60.0 mg/kg/injection, schedule: Q01DX009 (ip), vehicle: saline) was 1 of 6.
For `CCN(CC)CCO/N=C1\CC(c2ccc(OC)c(OC)c2)Oc2ccccc21` (stereo not drawn), the survivor count (dose: 120.0 mg/kg/injection, schedule: Q01DX005 (ip), vehicle: saline) was 0 of 6 and the survivor count (dose: 240.0 mg/kg/injection, schedule: Q01DX005 (ip), vehicle: saline) was 0 of 6.
In the case of `O=S(=O)(Nc1cc2ccccc2cc1NS(=O)(=O)N1CCCCC1)N1CCCCC1`, the survivor count (dose: 200.0 mg/kg/injection, schedule: Q01DX009 (ip), vehicle: Klucel (hydroxypropylcellulose) (HPC)) was 6 of 6.
`C=C1C(=O)OC2C[C@@]3(C)CC(O)C[C@H](C)C3=CC12` (stereo partly drawn) was tested, and the survivor count (dose: 80.0 mg/kg/injection, schedule: Q01DX009 (ip), vehicle: distilled water + Tween-80 + alcohol) was 2 of 6, the survivor count (dose: 150.0 mg/kg/injection, schedule: Q01DX009 (ip), vehicle: distilled water + Tween-80 + alcohol) was 4 of 4 and the survivor count (dose: 300.0 mg/kg/injection, schedule: Q01DX009 (ip), vehicle: distilled water + Tween-80 + alcohol) was 0 of 4.
With `COc1ccc(-c2nn(C)c3c2C(=O)CCC3)cc1OC` the survivor count (dose: 400.0 mg/kg/injection, schedule: Q04DX003 (ip), vehicle: Klucel (hydroxypropylcellulose) (HPC)) was 3 of 6.
With `O=C(CN1CC1)NCCCCCCCCNC(=O)CN1CC1` the survivor count (dose: 75.0 mg/kg/injection, schedule: Q04DX003 (ip), vehicle: saline with Tween-80) was 4 of 6 and the survivor count (dose: 100.0 mg/kg/injection, schedule: Q04DX003 (ip), vehicle: saline with Tween-80) was 4 of 6.
For `O=[N+]([O-])c1cn(CCNc2c3ccccc3nc3ccccc23)cn1`, the survivor count (dose: 120.0 mg/kg/injection, schedule: Q01DX005 (ip), vehicle: saline with Tween-80) was 0 of 6 and the survivor count (dose: 240.0 mg/kg/injection, schedule: Q01DX005 (ip), vehicle: saline with Tween-80) was 0 of 6.
In the case of `NC(N)=N/N=C1/C=C2C/C(=N\N=C(N)N)C=C2C1`, the survivor count (dose: 200.0 mg/kg/injection, schedule: Q01DX005 (ip), vehicle: Klucel (hydroxypropylcellulose) (HPC)) was 1 of 6.
`N=C(N)SCCC(=O)NCNC(=O)CCSC(=N)N` was tested, and the survivor count (dose: 200.0 mg/kg/injection, schedule: Q01DX005 (ip), vehicle: suspension in saline) was 0 of 6.
